# Key:
# The chains behind the UniProt entries cited, without tags or fusion partners.
# UniProt P33261, whole entry: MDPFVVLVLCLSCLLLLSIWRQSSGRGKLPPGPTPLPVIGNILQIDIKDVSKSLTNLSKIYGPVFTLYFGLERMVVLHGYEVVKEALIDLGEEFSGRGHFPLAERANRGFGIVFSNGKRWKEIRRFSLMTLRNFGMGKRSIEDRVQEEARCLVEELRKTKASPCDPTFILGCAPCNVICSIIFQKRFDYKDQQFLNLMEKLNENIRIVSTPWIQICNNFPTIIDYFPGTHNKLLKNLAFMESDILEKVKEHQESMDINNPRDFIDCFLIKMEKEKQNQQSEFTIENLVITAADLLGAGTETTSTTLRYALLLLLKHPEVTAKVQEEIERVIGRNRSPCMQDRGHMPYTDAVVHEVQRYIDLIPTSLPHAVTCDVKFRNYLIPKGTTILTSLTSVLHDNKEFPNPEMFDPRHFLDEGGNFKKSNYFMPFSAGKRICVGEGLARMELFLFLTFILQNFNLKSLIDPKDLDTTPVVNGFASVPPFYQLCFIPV
# [1] = Aqueous solubility of compound in PBS at pH 7.4 by HPLC-UV analysis; settings: buffer
# [2] = physchem; settings: buffer, pH 2
# [3] = Aqueous solubility of compound in PBS at pH 7 by HPLC-UV analysis; settings: buffer
# [4] = target: Cytochrome P450 2C19 (Homo sapiens, UniProt P33261)
Compound,solubility [1] [µg/mL],solubility [2] [µg/mL],solubility [3] [µg/mL],IC50 [4] [µM]
CS(=O)(=O)O.N#Cc1ccc(Nc2nccc(Nc3c(F)cc(-c4ccncc4)cc3F)n2)cc1,< 1,170,< 1,
CC(=O)O.N#Cc1ccc(Nc2nccc(Nc3c(F)cc(-c4ccncc4)cc3F)n2)cc1,< 1,184,< 1,
N#Cc1ccc(Nc2nccc(Nc3c(F)cc(-c4ccncc4)cc3F)n2)cc1.O=C(O)/C=C\C(=O)O,< 1,,< 1,
Cl.N#Cc1ccc(Nc2nccc(Nc3c(F)cc(-c4ccncc4)cc3F)n2)cc1,24.8,611,24.9,22
Br.N#Cc1ccc(Nc2nccc(Nc3c(F)cc(-c4ccncc4)cc3F)n2)cc1,,577,,
N#Cc1ccc(Nc2nccc(Nc3c(F)cc(-c4ccncc4)cc3F)n2)cc1.O=C(O)C(F)(F)F,< 1,476,< 1,
N#Cc1ccc(Nc2nccc(Nc3c(F)cc(-c4ccncc4)cc3F)n2)cc1.O=S(=O)(O)O,< 1,35.7,< 1,
